# Reference: the supplement of paper PMC12889115
# The list shows a part of the results. Values are raw readings; no control value is given beside them.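 In the initial screen, polymyxin B was used at a concentration that permeabilizes Salmonella's outer membrane but not its inner membrane. Maximum growth was set by DMSO wells with or without polymyxin B. Since plates varied, data were ranked per plate, and compounds giving the lowest OD600 advanced as hits.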
# Test system: Salmonella enterica serovar Typhimurium SL1344
# Assay: bacterial growth OD600 after 18 h with compound and polymyxin B; higher = more bacterial growth (less inhibition)
# Details: 50 µM, Mueller-Hinton broth
smiles,measurement,setting,value
NC(=O)C1CCN(C(=O)CC(c2ccccc2)c2ccc3c(c2)OCO3)CC1 (stereo unspecified),bacterial growth OD600,polymyxin B 0.75 µg/mL,0.854
CC(=O)N1CCN(C(=O)CC(c2cccc(O)c2)c2ccccc2Cl)CC1 (stereo unspecified),bacterial growth OD600,polymyxin B 1 µg/mL,0.832
CN(C)c1ncccc1CNC(=O)c1ccc2c(c1)OCCO2,bacterial growth OD600,polymyxin B 1 µg/mL,0.833
CCOC(=O)C1(Cc2ccccc2)CCN(Cc2cccc3c2OCO3)CC1,bacterial growth OD600,polymyxin B 1 µg/mL,0.759
Cc1ccc2c(c1)CN(Cc1ccc(C)s1)CC(C)O2 (stereo unspecified),bacterial growth OD600,polymyxin B 0.75 µg/mL,0.723
Cc1ccc(F)cc1CNC(=O)C1CC(=O)c2sc(NC(=O)c3c(F)cccc3Cl)nc2C1 (stereo unspecified),bacterial growth OD600,polymyxin B 0.75 µg/mL,0.284
CC#CCN1C(=O)NC(CCc2ccccc2)(C2CCN(Cc3ccc(OCCO)cc3)CC2)C1=O (stereo unspecified),bacterial growth OD600,polymyxin B 0.75 µg/mL,0.798
Cc1ccccc1-n1cc(CN2C[C@H]3OC(=O)N(Cc4ccccn4)[C@H]3C2)cn1,bacterial growth OD600,polymyxin B 0.75 µg/mL,0.792
CCOC(=O)C1(Cc2cccc(OC)c2)CCN(CC2CC=CCC2)CC1 (stereo unspecified),bacterial growth OD600,polymyxin B 1 µg/mL,0.738
CN(C)C(=O)N1CCC(C(=O)N2CCCC(Nc3ccccc3)C2)CC1 (stereo unspecified),bacterial growth OD600,polymyxin B 0.75 µg/mL,0.862
CCOC(=O)N1CCN(Cc2ccc3c(c2)CN(C(=O)CCc2c(C)nn(C)c2C)CCO3)CC1,bacterial growth OD600,polymyxin B 0.75 µg/mL,1
CC(C)(C)CN1CCC(N2CCCC(C(=O)NC3CC3)C2)CC1 (stereo unspecified),bacterial growth OD600,polymyxin B 1 µg/mL,0.896
CSc1nc(C(=O)N(C)C2CCCN(C3Cc4ccccc4C3)C2)cs1 (stereo unspecified),bacterial growth OD600,polymyxin B 1 µg/mL,0.947
CCCC(=O)NCC1Cc2cccc(-c3ncccc3C)c2O1 (stereo unspecified),bacterial growth OD600,polymyxin B 0.75 µg/mL,0.817
CC(NCc1c(C(=O)N(C)Cc2ccccc2)nc2ccccn12)c1ccccc1 (stereo unspecified),bacterial growth OD600,polymyxin B 1 µg/mL,0.687
COCCNC(=O)c1ccc(OC2CCN(Cc3ccco3)CC2)c(Cl)c1,bacterial growth OD600,polymyxin B 1 µg/mL,0.921
O=C(NC1CC(=O)N(Cc2cccc(F)c2)C1)C1CCCC1 (stereo unspecified),bacterial growth OD600,polymyxin B 1 µg/mL,0.859
Fc1ccc(F)c(CN2CCOc3ccc(CN4CCC(Oc5cccnc5)CC4)cc3C2)c1F,bacterial growth OD600,polymyxin B 0.75 µg/mL,0.772
CC(C)NC1CC(C)(C)Cc2nc(C(C)(C)C)ncc21 (stereo unspecified),bacterial growth OD600,polymyxin B 0.75 µg/mL,0.786
CC#CCN1C(=O)NC(CCCc2ccccc2)(C2CCN(C(=O)c3cc(C4CC4)n[nH]3)CC2)C1=O (stereo unspecified),bacterial growth OD600,polymyxin B 0.75 µg/mL,0.201
Cn1ccnc1CNC(=O)c1ccccc1OC1CCN(C(=O)c2cccnc2)CC1,bacterial growth OD600,polymyxin B 1 µg/mL,1.22
Fc1cccc(C2CCCCN2Cc2nc(-c3ccc4c(c3)OCO4)no2)c1 (stereo unspecified),bacterial growth OD600,polymyxin B 1 µg/mL,0.732
CCN(CC1CCCN(CCc2cccc(OC)c2)C1)C(=O)c1ccc(C)s1 (stereo unspecified),bacterial growth OD600,polymyxin B 1 µg/mL,0.852
CC(C)(C)CN1CCC(C2CCN(C(=O)c3ccnc(N)c3)CC2)C1 (stereo unspecified),bacterial growth OD600,polymyxin B 0.75 µg/mL,0.968
CN1C(=O)c2ccc(C(=O)N3CCCC(Nc4ccc5c(c4)OCCO5)C3)cc2C1=O (stereo unspecified),bacterial growth OD600,polymyxin B 0.75 µg/mL,0.785
CCN(CC)C(=O)C1CCCN(C(=O)c2oc3c(C)c(C)ccc3c2C)C1 (stereo unspecified),bacterial growth OD600,polymyxin B 1 µg/mL,0.826
CN(Cc1n[nH]c2c1CCCC2)C(=O)CC1(c2cccc(F)c2)CC(=O)N(Cc2cccnc2)C1=O (stereo unspecified),bacterial growth OD600,polymyxin B 0.75 µg/mL,0.759
CCn1cc(CNC(=O)c2cc(OC)ccc2OC2CCN(C(=O)C3CC3)CC2)cn1,bacterial growth OD600,polymyxin B 1 µg/mL,0.763
CCN1CCC(NC2CCCc3nc(N(C)C)ncc32)CC1 (stereo unspecified),bacterial growth OD600,polymyxin B 0.75 µg/mL,0.802
Cc1cccn2c(CN(C)Cc3cccnc3)c(C(=O)N(C)CCc3ccccc3)nc12,bacterial growth OD600,polymyxin B 1 µg/mL,0.876
Cc1csc(C(C)NC(=O)c2cc(Cn3ccnc3C(C)C)[nH]n2)n1 (stereo unspecified),bacterial growth OD600,polymyxin B 0.75 µg/mL,0.851

# Some of the entries above, reformatted.
smiles | measurement | setting | value
CC(=O)N1CCN(C(=O)CC(c2cccc(O)c2)c2ccccc2Cl)CC1 (stereo unspecified) | bacterial growth OD600 | polymyxin B 1 µg/mL | 0.832
CN(C)c1ncccc1CNC(=O)c1ccc2c(c1)OCCO2 | bacterial growth OD600 | polymyxin B 1 µg/mL | 0.833
